# Laboratory results as given in patent US20160367708A1, “COMPOSITIONS AND METHODS OF TREATING CANCER” (THE JOHNS HOPKINS UNIVERSITY, priority 2013, published 2016).
# System: mouse CRL2836 or human HeLa cells
# Test: Assessment of ^32P incorporated into DNA (DNase I digestion, gel autoradiography)
# Assay type: cell-based
# Details: digestion with DNase I
compound,measurement,value
"O=[32P](O)(O)O [[^32P]PO4, ^32P monophosphate]",incorporation of ^32P into cellular DNA,directly incorporated into cellular DNA
